Laboratory results from patent US20230040125A1, “TARGETING THE INTRINSIC APOPTOTIC MACHINERY IN GLIOBLASTOMA” (The Regents of The University Of California, priority 2019, published 2023).
“Also recorded” adds a separate entry of the source. For at least one compound, name, drawing or mass did not settle the structure.

Test system: GBM spheres
Assay: BH3 profiling of GBM spheres after TMZ or IR treatment (release of cytochrome C)
Assay type: cell-based
Conditions: BH3 profiling 48 hours after TMZ or IR, n=8

Cn1nnc2c(C(N)=O)ncn2c1=O [TMZ, temozolomide]
change of apoptotic dependency (BH3 profiling) (GBM spheres with p53 mutations): no change observed
change of apoptotic dependency (BH3 profiling) (subset of GBM spheres (p53 wild type)): shifted the basal dual dependency on BCLXL and MCL1 to a single dependency on BCLXL; also recorded: induce a single dependency on BCL-xL
